Data as given in paper PMC11189632.
No constants are given. Whether binding was seen depends on the method and setting. Binding seen in cells or lysates may run through a third protein. Some binding calls cover weakened binding; strength is not graded here. Where a sequence is shown, tags or fusion partners need not be part of it.

Target: T1, HCMV glycoprotein US10, untagged, transiently expressed (human cytomegalovirus (HCMV) AD169) (UniProt P09728)
T1 sequence: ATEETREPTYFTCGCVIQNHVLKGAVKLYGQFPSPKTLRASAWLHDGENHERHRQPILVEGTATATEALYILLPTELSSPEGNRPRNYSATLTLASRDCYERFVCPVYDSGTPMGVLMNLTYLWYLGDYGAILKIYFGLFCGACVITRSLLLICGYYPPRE
Test: co-IP; anti-US10 rabbit antiserum precipitation from wild-type or HLA-I KO HeLa cells transiently transfected with US10 and tapasin; 35S labelling 3 hr; digitonin lysate

tapasin, overexpressed (wild-type sequence in pcDNA3.1) (from UniProt O15533 21-448)
binding: binds
